Measurements from PubChem BioAssay AID328 (DTP/NCI, 2004).
The list is a part of this screen's results and no random one: it is rich in T/C values a quarter to a half above the control, in often repeated tests (any T/C) and in doses without a T/C. Further doses and runs are listed elsewhere. T/C: endpoint of the treated group in % of that of the vehicle group. Some doses have a count of surviving animals in place of a T/C: the source holds a T/C of zero for them, seemingly a mark for toxic or unscored doses. Some doses without a T/C left all or most animals alive at the check, yet need not have been tolerated: survival well below the control is almost never listed, so the zero probably covers shortened survival too. Survivors were counted at the toxicity check, usually on the fifth day, unless a day is given; later deaths do not show. Schedules are NCI's codes, taken here to give the interval after Q, in days (D) or hours (H), and the number of doses after X. Some structures stand for samples that the source files as different forms (salt, stereo form or complex); doses refer to the form tested. Where survival is the endpoint, this PubChem deposit counts one and a half times the control or more as active, and values a quarter to a half above the control carry no call in these data; other NCI protocols may use other cut-offs. Some T/C values are followed by the survivors on the day toxicity was checked, most often the fifth; without a count, all were alive then. Some doses were run more than once; their values stand side by side, smallest first.

Tested on: BDF1 mice, P388 leukemia ip, median survival T/C
Test: NCI In Vivo Anticancer Drug Screen. Data for tumor model P388 Leukemia (intraperitoneal) in B6D2F1 (BDF1) mice
Settings: T/C endpoint: median survival time, higher T/C = longer survival
Summary of the method: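 Read-out is survival of treated animals expressed relative to the vehicle group, as a T/C ratio.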

[1] = dose: 200.0 mg/kg/injection, schedule: Q01DX009 (ip), vehicle: saline
[2] = dose: 100.0 mg/kg/injection, schedule: Q01DX009 (ip), vehicle: saline with Tween-80
[3] = dose: 200.0 mg/kg/injection, schedule: Q01DX009 (ip), vehicle: saline with Tween-80
[4] = dose: 6.0 mg/kg/injection, schedule: Q01DX009 (ip), vehicle: saline

For `O=C(O)C1CCC2(CCCCC2)CC1`, the T/C (dose: 50.0 mg/kg/injection, schedule: Q04DX003 (ip), vehicle: water, evaluated on day 20) was 101 % of control, the T/C (dose: 50.0 mg/kg/injection, schedule: Q04DX003 (ip), vehicle: water, evaluated on day 30) was 102 [5 of 6 alive] and 104 % of control and the survivor count (dose: 50.0 mg/kg/injection, schedule: Q04DX003 (ip), vehicle: water) was 6 of 6. The T/C (dose: 100.0 mg/kg/injection, schedule: Q04DX003 (ip), vehicle: water, evaluated on day 20) was 130 % of control, the T/C (dose: 100.0 mg/kg/injection, schedule: Q04DX003 (ip), vehicle: water, evaluated on day 30) was 91 % of control and the survivor count (dose: 100.0 mg/kg/injection, schedule: Q04DX003 (ip), vehicle: water) was 5 of 6. The survivor count (dose: 200.0 mg/kg/injection, schedule: Q01DX009 (ip), vehicle: water) was 4 of 6, the T/C (dose: 200.0 mg/kg/injection, schedule: Q04DX003 (ip), vehicle: water, evaluated on day 20) was 106 % of control [5 of 6 alive] and the T/C (dose: 200.0 mg/kg/injection, schedule: Q04DX003 (ip), vehicle: water, evaluated on day 30) was 94 [5 of 6 alive] and 100 % of control. For the same compound, the survivor count (dose: 200.0 mg/kg/injection, schedule: Q04DX003 (ip), vehicle: water) was 6 of 6 and the survivor count (dose: 400.0 mg/kg/injection, schedule: Q04DX003 (ip), vehicle: water) was 4 of 6.

With `Cc1nc(Cl)c2c(n1)Oc1nc(C)nc(Cl)c1C2c1ccc(Cl)cc1` the survivor count (dose: 200.0 mg/kg/injection, schedule: Q01DX001 (ip), vehicle: Klucel (hydroxypropylcellulose) (HPC)) was 6 of 6.

`O=S(=O)(O)c1ccc(O)cc1` was tested, and the survivor count (dose: 400.0 mg/kg/injection, schedule: Q01DX009 (ip), vehicle: saline) was 6 of 6.

With `CCN(CC)c1ccc([N+](=O)[O-])c2no[n+]([O-])c12` the survivor count (dose: 140.0 mg/kg/injection, schedule: Q01DX009 (ip), vehicle: saline with Tween-80) was 1 of 7.

`COc1ccc(C(=O)C(Br)C(Br)C(=O)O)cc1` (stereo not given) was tested, and the survivor count [1] was 2 of 6 and the survivor count (dose: 200.0 mg/kg/injection, schedule: Q04DX003 (ip), vehicle: saline) was 1 of 6.

`Cn1c(=O)oc2ccc(Cl)cc21` was tested, and the survivor count [2] was 6 of 6.

For `Brc1ccc(C[n+]2ccccc2)cc1`, the survivor count (dose: 50.0 mg/kg/injection, schedule: Q04DX003 (ip), vehicle: saline) was 3 of 6 and the survivor count (dose: 100.0 mg/kg/injection, schedule: Q04DX003 (ip), vehicle: saline) was 0 of 6.

In the case of `COCCn1c2nc(=O)n(-c3ccccc3)c(=O)c-2nc2c1CCCC2`, the survivor count [3] is reported as 5 of 6.

For `CC1(C)N=C(N)N=C(N)N1c1cccc(OCCOc2ccc([N+](=O)[O-])cc2)c1`, the T/C (dose: 200.0 mg/kg/injection, schedule: Q01DX009 (ip), vehicle: saline sonified) was 145 % of control.

In the case of `CN=C1C=C(NC)C(F)(F)C1(F)F`, the survivor count (dose: 50.0 mg/kg/injection, schedule: Q04DX003 (ip), vehicle: Klucel (hydroxypropylcellulose) (HPC)) is reported as 4 of 6.

For `COC1=C(C)C(=O)c2c(c(COC(N)=O)c3n2CC2C3N2C)C1=O` (stereo not given), the survivor count (dose: 3.13 mg/kg/injection, schedule: Q01DX009 (ip), vehicle: saline sonified) was 6 of 6 and the survivor count (dose: 4.6 mg/kg/injection, schedule: Q01DX009 (ip), vehicle: saline sonified) was 6 of 6.

For `CCCCCCCCCCCCCC[n+]1ccccc1`, the T/C (dose: 0.5 mg/kg/injection, schedule: Q01DX010 (ip), vehicle: saline) was 135 % of control, the survivor count (dose: 1.0 mg/kg/injection, schedule: Q01DX010 (ip), vehicle: saline) was 2 of 6 and the survivor count (dose: 2.0 mg/kg/injection, schedule: Q01DX010 (ip), vehicle: saline) was 0 of 6. For the same compound, the survivor count (dose: 4.0 mg/kg/injection, schedule: Q01DX010 (ip), vehicle: saline) was 0 of 6, the T/C (dose: 8.0 micrograms/kg/injection, schedule: Q01DX009 (ip), vehicle: saline with Tween-80) was 125 % of control and the survivor count (dose: 125.0 micrograms/kg/injection, schedule: Q01DX010 (ip), vehicle: saline) was 4 of 6. For the same compound, the T/C (dose: 250.0 micrograms/kg/injection, schedule: Q01DX009 (ip), vehicle: saline) was 140 % of control, the T/C (dose: 500.0 micrograms/kg/injection, schedule: Q01DX009 (ip), vehicle: saline) was 145 % of control and the survivor count (dose: 500.0 micrograms/kg/injection, schedule: Q01DX010 (ip), vehicle: saline) was 3 of 6. The survivor count (dose: 1000.0 micrograms/kg/injection, schedule: Q01DX009 (ip), vehicle: saline) was 3 of 6.

With `CC1C[N-]CC(C)C1.CC1C[N-]CC(C)C1.CC1C[N-]CC(C)C1.CC1C[N-]CC(C)C1.[Cl][Rh][Cl]` (stereo not given) the T/C (dose: 0.75 mg/kg/injection, schedule: Q01DX009 (ip), vehicle: saline) was 146 % of control, the T/C (dose: 1.5 mg/kg/injection, schedule: Q01DX009 (ip), vehicle: saline) was 146 % of control and the T/C (dose: 3.0 mg/kg/injection, schedule: Q01DX009 (ip), vehicle: saline) was 136 and 146 % of control. For the same compound, the T/C [4] was 128 % of control, the survivor count [4] was 3 of 6 and the survivor count (dose: 12.0 mg/kg/injection, schedule: Q01DX009 (ip), vehicle: saline) was 1 of 6.

For `O=C(Nc1ccc(NC(=O)c2ccc(C3=NCCCN3)cc2)cc1)c1ccc(C2=NCCCN2)cc1`, the T/C (dose: 33.0 mg/kg/injection, schedule: Q04DX003 (ip), vehicle: saline with Tween-80) was 146 % of control.

In the case of `COC(=O)c1cc(=O)n(-c2ccccc2F)c(SC)n1`, the survivor count (dose: 200.0 mg/kg/injection, schedule: Q04DX003 (ip), vehicle: Klucel (hydroxypropylcellulose) (HPC)) is reported as 4 of 6 and the survivor count (dose: 400.0 mg/kg/injection, schedule: Q04DX003 (ip), vehicle: Klucel (hydroxypropylcellulose) (HPC)) is reported as 1 of 6.

In the case of `CN=C(N)c1ccc(N=C(N)c2ccc(N=C(N)c3ccc(NC(=O)Nc4cccc(NC(=O)Nc5ccc(C(N)=Nc6ccc(C(N)=Nc7ccc(C(N)=NC)cc7)cc6)cc5)c4)cc3)cc2)cc1`, the T/C (dose: 1.3 mg/kg/injection, schedule: Q01DX009 (ip), vehicle: saline with Tween-80) is reported as 130 % of control, the T/C (dose: 2.0 mg/kg/injection, schedule: Q01DX009 (ip), vehicle: saline with Tween-80) is reported as 138 and 141 % of control and the T/C (dose: 25.0 mg/kg/injection, schedule: Q04DX003 (ip), vehicle: saline with Tween-80) is reported as 141 % of control. The survivor count (dose: 75.0 mg/kg/injection, schedule: Q01DX009 (ip), vehicle: saline with Tween-80) was 6 of 6, the T/C (dose: 75.0 mg/kg/injection, schedule: Q04DX003 (ip), vehicle: saline with Tween-80) was 131 % of control [5 of 6 alive] and the survivor count (dose: 150.0 mg/kg/injection, schedule: Q04DX003 (ip), vehicle: saline with Tween-80) was 0 of 1.

In the case of `OCCN1CCN(CCCN2c3ccccc3Sc3cccnc32)CC1`, the T/C (dose: 50.0 mg/kg/injection, schedule: Q01DX009 (ip), vehicle: saline) is reported as 126 % of control [5 of 6 alive], the survivor count (dose: 75.0 mg/kg/injection, schedule: Q04DX003 (ip), vehicle: saline) is reported as 6 of 6 and the T/C (dose: 100.0 mg/kg/injection, schedule: Q01DX009 (ip), vehicle: saline) is reported as 133 and 137 % of control [5 of 6 alive]. The survivor count (dose: 150.0 mg/kg/injection, schedule: Q04DX003 (ip), vehicle: saline) was 0 of 6 and the survivor count [1] was 0 of 6.

`C1#CCCCCCC#CCCCC1` was tested, and the T/C (dose: 24.75 mg/kg/injection, schedule: Q01DX009 (ip), vehicle: saline with Tween-80) was 127 % of control, the T/C (dose: 37.5 mg/kg/injection, schedule: Q01DX009 (ip), vehicle: acetone) was 136 % of control and the T/C (dose: 37.5 mg/kg/injection, schedule: Q01DX009 (ip), vehicle: saline with Tween-80) was 136 % of control. The T/C (dose: 56.25 mg/kg/injection, schedule: Q01DX009 (ip), vehicle: saline with Tween-80) was 136 % of control, the T/C (dose: 75.0 mg/kg/injection, schedule: Q01DX009 (ip), vehicle: acetone) was 131 % of control and the survivor count (dose: 150.0 mg/kg/injection, schedule: Q01DX009 (ip), vehicle: acetone) was 2 of 6.

For `Oc1ccc(F)c2cccnc12`, the survivor count (dose: 100.0 mg/kg/injection, schedule: Q01DX010 (ip), vehicle: carboxymethylcellulose (CMC)) was 1 of 6.

In the case of `c1cc2cccc3c2c(c1)c1sc2c4cccc5cccc(c54)c2c31`, the survivor count (dose: 400.0 mg/kg/injection, schedule: Q04DX003 (ip), vehicle: saline with Tween-80) is reported as 6 of 6.

For `CCOC(=O)c1cnc(=O)[nH]c1N`, the survivor count [2] was 5 of 6 and the survivor count [3] was 5 of 6.

With `CC(=O)/C=C/c1ccc2c(c1)OCO2` the T/C (dose: 400.0 mg/kg/injection, schedule: Q04DX003 (ip), vehicle: saline) was 138 % of control.
